Article PMC7694386
No constants are given. Whether binding was seen depends on the method and setting. Binding seen in cells or lysates may run through a third protein. Some results given as binding are weak or reduced against the parent protein; the word gives no strength.

Amino acid sequences for entries named in this document (tags omitted).
UniProt O95817: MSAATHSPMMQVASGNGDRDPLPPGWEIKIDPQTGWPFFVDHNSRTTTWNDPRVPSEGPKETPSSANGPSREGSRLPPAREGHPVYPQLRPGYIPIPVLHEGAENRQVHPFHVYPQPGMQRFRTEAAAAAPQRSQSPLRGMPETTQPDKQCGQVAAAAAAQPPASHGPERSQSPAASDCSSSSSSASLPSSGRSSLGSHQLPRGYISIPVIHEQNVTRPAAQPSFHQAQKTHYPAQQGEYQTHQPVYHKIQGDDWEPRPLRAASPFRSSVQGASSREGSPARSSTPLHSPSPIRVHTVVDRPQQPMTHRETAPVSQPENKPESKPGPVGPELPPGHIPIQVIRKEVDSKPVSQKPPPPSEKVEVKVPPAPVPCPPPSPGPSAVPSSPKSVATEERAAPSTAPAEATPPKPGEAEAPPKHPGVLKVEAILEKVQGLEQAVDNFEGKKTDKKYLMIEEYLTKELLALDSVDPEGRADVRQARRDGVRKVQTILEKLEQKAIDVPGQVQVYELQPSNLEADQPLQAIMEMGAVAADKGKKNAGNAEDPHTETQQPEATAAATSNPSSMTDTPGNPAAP
UniProt P07947: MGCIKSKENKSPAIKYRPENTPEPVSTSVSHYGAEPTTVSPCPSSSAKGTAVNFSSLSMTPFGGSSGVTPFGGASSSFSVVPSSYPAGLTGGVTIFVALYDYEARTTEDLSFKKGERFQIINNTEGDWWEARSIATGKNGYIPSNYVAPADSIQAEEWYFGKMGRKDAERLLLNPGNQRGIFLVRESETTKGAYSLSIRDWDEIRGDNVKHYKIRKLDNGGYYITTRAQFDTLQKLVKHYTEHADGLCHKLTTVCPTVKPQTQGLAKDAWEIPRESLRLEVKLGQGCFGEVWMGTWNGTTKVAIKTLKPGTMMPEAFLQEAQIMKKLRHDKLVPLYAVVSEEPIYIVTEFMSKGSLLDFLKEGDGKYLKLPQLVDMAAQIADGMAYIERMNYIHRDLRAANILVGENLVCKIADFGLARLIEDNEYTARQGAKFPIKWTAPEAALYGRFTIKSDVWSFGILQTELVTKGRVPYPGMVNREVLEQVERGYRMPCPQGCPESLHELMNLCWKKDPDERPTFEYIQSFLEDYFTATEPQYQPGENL

Molecular target: FLAG-tagged human BAG3 (human) (UniProt O95817)
Test: co-IP; FLAG-hBAG3 overexpressed in HEK293T; anti-FLAG M2 affinity gel overnight at 4 °C; immunoblotting; untagged hBAG3 as control

For “tyrosine-protein kinase YES1 (Yamaguchi Sarcoma viral oncogene homologue 1) (from UniProt P07947 1-543)”, the binding was “binds”.
